{"source": "the supplement of paper PMC8104966", "note": "Values joined by “and” are separate entries in the source; they are usually repeats but may differ in a detail not shown here. Identical values can stand only once. Some of the results follow. Repeats in this data set agree poorly, so a single value says little.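 U2OS cells carrying ACE2 were mixed with U2OS cells carrying full-length spike, and fusion was scored by imaging as the share of nuclei showing both cell types' fluorescent markers. A compound counts as an inhibitory hit when it is non-toxic and its fusion z-score falls below -3, meaning more than three standard deviations below the plate's DMSO wells.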", "data": [{"tested_on": "U2OS ACE2 x SARS-CoV-2 spike co-culture", "assay": "cell-cell fusion (fraction fused) z-score vs plate DMSO control; higher = more fusion", "details": "30 µM; 5 h; toxicity class: non-toxic, passed QC", "values": [{"smiles": "CC[C@@H](CO)NC(=O)[C@@H]1C=C2c3cccc4[nH]cc(c34)C[C@H]2N(C)C1.O=C(O)/C=C\\C(=O)O", "cell-cell fusion (z-score)": "inactive: -1.09"}, {"smiles": "O=C([O-])CC(O)(CC(=O)[O-])C(=O)[O-].O=C([O-])CC(O)(CC(=O)[O-])C(=O)[O-].[Bi+3].[K+].[K+].[K+]", "note": "[Gastrodenol]", "cell-cell fusion (z-score)": "inactive: 1.71"}, {"smiles": "O=C([O-])C[C@H](O)C[C@H](O)/C=C/c1c(C2CC2)nc2ccccc2c1-c1ccc(F)cc1.O=C([O-])C[C@H](O)C[C@H](O)/C=C/c1c(C2CC2)nc2ccccc2c1-c1ccc(F)cc1.[Ca+2]", "note": "[Pitavastatin calcium]", "cell-cell fusion (z-score)": "inactive: -0.0101"}, {"smiles": "O=C(O)c1nc2cc(Cl)c(Cl)cc2nc1O", "cell-cell fusion (z-score)": "inactive: -0.161"}, {"smiles": "CC(=O)S[C@@H]1CC2=CC(=O)CC[C@]2(C)[C@H]2CC[C@@]3(C)[C@@H](CC[C@@]34CCC(=O)O4)C12", "note": "(some centres undefined)", "cell-cell fusion (z-score)": "inactive: 3.21"}, {"smiles": "CC(=O)N[C@@H]1[C@@H](O)[C@H](O)[C@@H](CO)O[C@H]1O", "cell-cell fusion (z-score)": "inactive: 1.88"}, {"smiles": "C=C1CCC2[C@](C)(CO)[C@H](O)CC[C@@]2(C)[C@@H]1C/C=C1/C(=O)OC[C@H]1O", "note": "(some centres undefined)", "cell-cell fusion (z-score)": "inactive: 2.44"}, {"smiles": "Cc1nc(NC(=O)N2CCC[C@H]2C(N)=O)sc1-c1csc(C(C)(C)C)n1", "cell-cell fusion (z-score)": "inactive: -2.76"}, {"smiles": "O=c1[nH]c(=O)n([C@H]2C[C@H](O)C(CO)O2)cc1I", "note": "(some centres undefined)", "cell-cell fusion (z-score)": "inactive: 2.61"}, {"smiles": "CC(=O)O.CSC(=N)NCCC[C@H](N)C(=O)O", "note": "[S-Methyl-L-thiocitrulline acetate]", "cell-cell fusion (z-score)": "inactive: 3.06"}, {"smiles": "Cl.Nc1ccc(/N=N/c2ccccc2)c(N)n1", "cell-cell fusion (z-score)": "inactive: 0.943"}, {"smiles": "CC(C)(C)c1onc(OCP(=O)(O)O)c1CC(N)C(=O)O", "note": "(centres undefined)", "cell-cell fusion (z-score)": "inactive: 2.91"}, {"smiles": "Cc1ccc(/C(=C\\CN2CCCC2)c2ccccn2)cc1.Cl.O", "note": "[Triprolidine hydrochloride]", "cell-cell fusion (z-score)": "inactive: 1.6"}, {"smiles": "CCC[C@@H]1C[C@@H](C(=O)N[C@@H]([C@H]2O[C@H](SC)[C@H](O)[C@@H](O)[C@H]2O)[C@H](C)Cl)N(C)C1.Cl", "note": "[Clindamycin HCl]", "cell-cell fusion (z-score)": "inactive: 1.96"}, {"smiles": "c1ccc2[nH]c(-c3cscn3)nc2c1", "note": "[Thiabendazole]", "cell-cell fusion (z-score)": "inactive: 3.02"}, {"smiles": "Cc1cccc(Nc2ccncc2S(=O)(=O)NC(=O)NC(C)C)c1", "cell-cell fusion (z-score)": "inactive: 0.775"}, {"smiles": "C[C@H](N)[C@H](O)c1cccc(O)c1.O=C(O)[C@H](O)[C@@H](O)C(=O)O", "note": "[Metaraminol bitartrate]", "cell-cell fusion (z-score)": "inactive: 0.397"}, {"smiles": "Nc1cccc2c1CN(C1CCC(=O)NC1=O)C2=O", "note": "(centres undefined) [Lenalidomide]", "cell-cell fusion (z-score)": "inactive: 2.98"}, {"smiles": "N[C@H](C(=O)O)[C@H](O)c1ccc(O)c(O)c1", "note": "[Droxidopa]", "cell-cell fusion (z-score)": "inactive: 0.883"}, {"smiles": "O=[N+]([O-])c1cc(O)c(O)c([N+](=O)[O-])c1", "note": "[3,5-Dinitrocatechol]", "cell-cell fusion (z-score)": "inactive: 0.119"}, {"smiles": "CC[C@H]1OC(=O)[C@H](C)[C@@H](O[C@H]2C[C@@](C)(OC)[C@@H](O)[C@H](C)O2)[C@H](C)[C@@H](O[C@@H]2O[C@H](C)C[C@H](NC)[C@H]2O)[C@](C)(O)C[C@@H](C)CN(C)[C@H](C)[C@@H](O)[C@]1(C)O.O", "cell-cell fusion (z-score)": "inactive: 0.999 and inactive: 2.37"}, {"smiles": "COC(=O)/C(C)=C\\CC12OC(C)(C)C3CC(C=C4C(=O)c5c(c(CCC(C)(C)Cl)c6c(c5OC)C5CC(C)(CCC5=C(C)C)O6)OC431)C2=O", "note": "(centres undefined)", "cell-cell fusion (z-score)": "inactive: 1.26"}, {"smiles": "C[C@H]1O[C@H](O[C@H]2[C@H](O)[C@@H](O)[C@@H](O[C@H]3[C@H](O)[C@@H](O)C(O)O[C@@H]3CO)O[C@@H]2CO)[C@H](O)[C@@H](O)[C@@H]1N[C@H]1C=C(CO)[C@@H](O)[C@H](O)[C@H]1O", "note": "(some centres undefined)", "cell-cell fusion (z-score)": "inactive: 3.03"}, {"smiles": "O=c1cc(-c2cccc3c2Sc2ccccc2S3)oc(N2CCOCC2)c1", "cell-cell fusion (z-score)": "inactive: -1.41 and inactive: 2.19"}, {"smiles": "Cn1nnnc1SCC1=C(C(=O)[O-])N2C(=O)C(NC(=O)C(OC=O)c3ccccc3)C2SC1.[Na+]", "note": "(centres undefined)", "cell-cell fusion (z-score)": "inactive: 3.2"}, {"smiles": "Cc1ccc2c(c1)CC[C@H]1CC(=O)CC[C@]21C", "cell-cell fusion (z-score)": "inactive: 2.1"}, {"smiles": "CC(=O)Oc1ccc2c(c1)CCC1C2CC[C@]2(C)C(=O)CCC12", "note": "(some centres undefined)", "cell-cell fusion (z-score)": "inactive: 2.55"}, {"smiles": "COc1cc(-c2coc3cc(O[C@@H]4O[C@H](CO)[C@@H](O)[C@H](O)[C@H]4O)c(OC)c(O)c3c2=O)cc(O)c1OC", "cell-cell fusion (z-score)": "inactive: 2.77"}, {"smiles": "COc1c(N2CCNC(C)C2)c(F)cc2c(=O)c(C(=O)O)cn(C3CC3)c12", "note": "(centres undefined) [Gatifloxacin]", "cell-cell fusion (z-score)": "inactive: 2.52"}, {"smiles": "CC(C)NCC(O)COc1ccc(CC(N)=O)cc1", "note": "(centres undefined)", "cell-cell fusion (z-score)": "inactive: 0.741"}, {"smiles": "Cc1[nH]c(=O)c(C#N)cc1-c1ccc2nccn2c1.Cl", "note": "[Olprinone hydrochloride]", "cell-cell fusion (z-score)": "inactive: 1.92"}, {"smiles": "O=C(O[C@H]1C[C@H]2CC[C@@H](C1)[N+]21CCCC1)C(O)(c1ccccc1)c1ccccc1.[Cl-]", "note": "[Trospium chloride]", "cell-cell fusion (z-score)": "inactive: 3.67"}, {"smiles": "Cc1c(O)c(=O)ccn1C", "note": "[Deferidone]", "cell-cell fusion (z-score)": "inactive: 1.51"}, {"smiles": "CC(=O)[C@H]1CC[C@H]2[C@@H]3CCC4=CC(=O)CC[C@]4(C)[C@H]3CC[C@]12C", "note": "[Progesterone]", "cell-cell fusion (z-score)": "inactive: 2.46"}]}]}
